The list shows a part of the results.
B1: il10ra_site1_normal_mot_HHH_b2_06979_000000158_0001_42_57_H_._HHH_b1_03152_0001_0000200036_0000001_0 (protein)
chain: SSSSDEVEELYELVRELAELLHEGDEERFEEVLEQAKRLAEEANDRLTLINLEFLERDLKSSSSS
B2: il10ra_site1_normal_mot_HHH_b2_03183_af2_000000055_0001_40_56_H_._HHH_b2_08078_0001_0000100001_0000002_0 (protein)
chain: SSSSNREELIEAALRLLEQAIELGDPRAARFLIIAIKIAVEETNDEEAREELERLEELLNSSSSS
B3: il10ra_site1_sap_21_mot_39ab2cb694c8b9c1dc7e65c0d672c93e_0001_000000036_0001_53_65_H_._HHH_b1_04427_0001_0000100002_0000001_0_0001 (protein)
chain: SSSSDLAQEAAHLSLEAFRLALRGDPEEAEEVLREAEELAERAGDERLLKQIRNLLKAQKSSSSS
B4: il10ra_site1_sap_8_mot_05ca327611f5605f0dd8494b449afcbf_0001_1_000000248_0001_35_51_H_._HHH_b1_07641_0001_0000300015_0000002_0_0001_af2pred_0001 (protein)
chain: SSSSSSSELERLLEEIEEALERGDPQEALKLSREAARLAAELNDKEVLKILAELLREIFSSSSSS
B5: il10ra_site1_sap_24_mot_HHH_b1_06914_000000280_0001_1_18_H_._HHH_b1_06388_0001_0000100003_0000002_0_0001 (protein)
chain: SSSSLEERVVELAFEAVELLANGNPEEAEEVLEEARELAEELNDEELRRYVEIAEHFVKSHSSSS
B6: il10ra_site1_normal_mot_HHH_b2_04168_af2_000000050_0001_1_20_H_._0831bd5750e541fe76d95d22628dacf8_0001_0001_0000500006_0000001_0 (protein)
chain: SEVEELAEEAKRKNDADLAFKAFKVLLQELLKRGIPPERAKEIALEVARELGNPYLERLAEASLL
B7: il10ra_site1_sap_14_mot_HHH_b1_06788_af2_000000238_0001_19_36_H_._HHH_b1_00610_0001_0000500077_0000001_0_0001_af2pred_0001 (protein)
chain: SSSSSEILREVSYLLIRAYALASQGNPEEAEKVLEEARELAEENNDERARLSVELLEEFLSSSSS
B8: il10ra_site1_normal_mot_HHH_b2_00475_000000107_0001_44_57_H_._HHH_b1_04904_0002_0000200015_0000002_0 (protein)
chain: SSSSDIIEVLYRLQHAVAKGDEEEIEELLEELEELLKKASEEERKYIEILLHFARAQLELLSSSS
B9: il10ra_site1_normal_mot_HHH_b2_07521_000000141_0001_20_37_H_._HHH_b2_00616_0001_0000500010_0000001_0 (protein)
chain: SSSSDEAERAVRRILEAAERAYELGDEEYVRLSLRFAKFLARAANDPEAERLVEEVEERLSSSSS
B10: il10ra_site1_normal_mot_ems_3hC_551_000000072_0001_1_18_H_._HHH_b2_07452_af2_0001_0000100004_0000002_0_af2pred_0001 (protein)
chain: SSSSSDEELVRLALRFAKFLLKYGDKESAENAVRSAQKLAEEGGNEELVEELEELEKQIKSSSSS
B11: il10ra_site1_sap_15_mot_HHH_b1_04905_af2_000000228_0001_1_17_H_._HHH_b1_05842_af2_0001_0000500008_0000002_0_0001_af2pred_0001 (protein)
chain: SSSSNDIERALEILIEAIEELLEQGDKERARLTVEIARRLAEDAGNEELLEILEELHELINSSSS
B12: il10ra_site1_normal_mot_HHH_b1_00456_000000263_0001_1_17_H_._HHH_b2_05705_af2_0001_0000300009_0000001_0_af2pred_0001 (protein)
chain: SSSSSSDEEEVEKLLEEAEHISDEREAAYVLVRAFAIALRLGDPELERLVKEVAQKLLSSSSSSS
B13: il10ra_site1_sap_16_mot_HHH_b2_07442_000000239_0001_40_54_H_._HHH_b2_00342_af2_0001_0000100001_0000001_0_0001_af2pred_0001 (protein)
chain: SSSADTEESLKLFLRFVEEALRRGDPERARLSLRFAKFLAEQAGNEELLRELERLEEELENSSSS
B14: il10ra_site1_normal_mot_HHH_b2_03328_af2_000000127_0001_1_19_H_._f3d5fbb9806109dc41c8faca98c9de00_0001_1_0001_0000300008_0000002_0_af2pred_dldesign_0_af2pred (protein)
chain: LELSRLLSDAVITAKNPELAQRLAEVAREIAEDPSKLEELLAELLEEAKAAGDEEVVALLEKALE
B15: il10ra_site1_sap_19_mot_HHH_b1_02997_000000220_0001_39_52_H_._HHH_b1_04476_0001_0000300011_0000001_0_0001 (protein)
chain: SSSSSAAHRAYELLRRAMELMDEGNPEEAEELLEEAEELLREAGDRVILHNVEYVLRKLNSSSSS
B16: il10ra_site1_sap_21_mot_HHH_b2_06321_af2_000000133_0001_22_38_H_._HHH_b2_05043_0001_0000300054_0000003_0_0001 (protein)
chain: SSSSSSSAKEEAEELLEEAREIEDKHEATRLLYRAARLAAKAHDDELIKEIMEVFARLSSSSSSS
B17: il10ra_site1_sap_13_mot_HHH_b1_03478_af2_000000027_0001_1_18_H_._HHH_b1_08739_0001_0000100006_0000001_0_0001 (protein)
chain: SSDRHQEFFRVVKEAIEAASDNDEEEAEELVKEAEKIAEEIGDRIAKMIVKFVKELVEKLRSSSS
B18: il10ra_site1_normal_mot_HHH_b1_04065_000000255_0001_41_56_H_._HHH_b1_08168_0001_0000400026_0000001_0_af2pred_0001 (protein)
chain: SSSSSEEEELEELLEKLEKLAEEGDEEKFLQLFVRVSKLAHEAKDEEIARLLDELAREFFSSSSS
B19: il10ra_site1_normal_mot_HHH_b2_02337_000000026_0001_38_52_H_._HHH_b2_04339_af2_0001_0000100005_0000001_0 (protein)
chain: SSSSSDEEELKELIEEIEELLENGNPEEASELAQRAVQLAFELQDQEALQRLWELVQLAGSSSSS
B20: il10ra_site1_sap_13_mot_HHH_b2_07690_000000074_0001_19_35_H_._HHH_b1_01657_0001_0000200021_0000001_1_0001 (protein)
chain: SSSSSDEEELAEALERIIQQLLEWGDPEAARMHILALEMLAEELNDPELERLVEELKELLSSSSS
B21: il10ra_site1_normal_mot_HHH_b2_08186_000000021_0001_43_56_H_._HHH_b1_08292_af2_0001_0000300010_0000002_0 (protein)
chain: SSSSSSEEEEEVERLLEELEKIKDREEFLRLAQEILRLIFELGNDELLQRLWEILKKSHSSSSSS
B22: il10ra_site1_normal_mot_8756ee2cf497b5429c717dfc0c0bcfd6_0001_000000186_0001_1_13_H_._HHH_b1_07051_af2_0001_0000100003_0000001_0_af2pred_0001 (protein)
chain: SSSTKATEVARILRKAIELLSDGDKEEAERLVREAEELAEEINNEALRVIIEFLERLIRRLSSSS
B23: il10ra_site1_sap_14_mot_HHH_b1_06339_000000020_0001_43_57_H_._HHH_b1_01166_0001_0000100001_0000001_0_0001 (protein)
chain: SSSSSSQEVMKLIREAVELLQQGDPEEAEKVAEEAVELARELGNWVLRFAAEHLLRDIENSSSSS
B24: il10ra_site1_normal_mot_8756ee2cf497b5429c717dfc0c0bcfd6_0001_000000186_0001_1_13_H_._HHH_b1_02199_af2_0001_0000500036_0000003_0_af2pred_0001 (protein)
chain: SSSSSLSQRILELLRRAAELLREGDPEEAEELIREAEELAEEANNLAAQAVIKFMLKIVNSSSSS
B25: il10ra_site1_sap_18_mot_HHH_b2_04679_000000194_0001_21_38_H_._HHH_b1_05122_0001_0000300011_0000001_0_0001 (protein)
chain: SSSSSSIIRIAQEAIRLAIQLGDEETFQEIWRLAKEYKETGDPRIEEELEELLEELERRGSSSSS
B26: il10ra_site1_normal_mot_HHH_b2_03418_af2_000000231_0001_1_17_H_._HHH_b1_05635_0001_0000300018_0000002_0 (protein)
chain: SSSSDEEVEELLERAEELLERGDLKEAAEVITKAWILALRLRDQELARLAAELAQIANELQSSSS
B27: il10ra_site1_sap_16_mot_HHH_b1_02997_000000220_0001_39_52_H_._HHH_b2_05611_af2_0001_0000400043_0000002_0_0001_af2pred_0001 (protein)
chain: SSSSSEAARIAHEVAEEVAKLREEGDEEEARRLLEEALERLEELNNPLAAHNIRHLLRDLESSSS
B28: il10ra_site1_sap_31_mot_HHH_b1_01879_000000050_0001_1_18_H_._HHH_b2_03374_0001_0000100006_0000002_0_0001 (protein)
chain: SSSSSESEEAYRLLREAMELIDDGNPEEARKVLEEAEELAEEGNNPLILRQLEFVKRDLEGSSSS
B29: il10ra_site1_normal_mot_HHH_b1_06994_000000193_0001_40_55_H_._HHH_b1_03771_0001_0000300019_0000001_0 (protein)
chain: SSSSSQEEELLRALERLIEQALEAGNPRAAKFLIWAAKLLAKELGDEETLEELEELEKRVDSSSS
B30: il10ra_site1_normal_mot_HHH_b1_02809_af2_000000277_0001_40_57_H_._HHH_b2_00812_0001_0000300019_0000001_0 (protein)
chain: SSSSSREEASRLFVEAARALQEGDREEAEELLEELRELVEELGDKRLELSLRFLEALVRFLSSSS
B31: il10ra_site1_normal_mot_HHH_b2_02725_000000049_0001_1_17_H_._HHH_b2_00579_0001_0000300016_0000001_0 (protein)
chain: SSSSSDDELYKEVKELLEEATEIEDPEERREVLEEAKELAEELGNEALLHAVEYLERIQSSSSSS
B32: il10ra_site1_normal_mot_HHH_b2_03708_000000000_0001_1_18_H_._HHH_b2_04055_af2_0001_0000300024_0000001_0 (protein)
chain: SSSSDERQRLSELLLEAFRLALRGNPEEARELLEEAEELAEKLGDEEIARLVRDLLQALHSSSSS
B33: il10ra_site1_normal_mot_HHH_b1_03031_af2_000000117_0001_17_33_H_._HHH_b1_04343_af2_0001_0000100002_0000002_0_af2pred_0001 (protein)
chain: SSSDEEVEERAEEVLLEAIFLAARKRNHEAVYRLLEIYARIAQEGDPELLKELEKLLEELRSSSS
B34: il10ra_site1_sap_22_mot_HHH_b2_06812_af2_000000299_0001_41_56_H_._44e4ab65238a46b1c89eac5211a0a491_0001_1_0001_0000400022_0000001_0_0001 (protein)
chain: SSSSDVEEEIEELLREAKKLAENGNPERATHLIIEAYALADQNNNEELREEVAELLRRLLDSSSS
B35: il10ra_site1_sap_21_mot_HHH_b2_03220_af2_000000223_0001_23_40_H_._HHH_b1_04435_af2_0001_0000200016_0000001_0_0001 (protein)
chain: SSSSTLEFSVKFALRTAEHAFRAGDEERARAQLEAILEHIKQAGDDELLREVQELLEELNSSSSS
B36: il10ra_site1_normal_mot_HHH_b1_07478_000000026_0001_21_37_H_._ems_3hC_921_0001_0001_0000100012_0000001_0 (protein)
chain: SSPEEAEKLLEEAEKLAEELNDKNALFIVKSLKKVLERAEENNDERAVELVEEAARVLLEQLQSS
B37: il10ra_site1_normal_mot_HHH_b1_03094_000000294_0001_1_20_H_._HHH_b1_07059_af2_0001_0000100004_0000003_0 (protein)
chain: SSSSSEELEELLRLSLEAFRLALRGDHEEARHLLEEALRIAEELGNERAVRVIEELLEAQSSSSS

molecular target: il10ra, Q13651; experiment: yeast display titration

Apparent Kd, inactive:
B1 no binding seen, B2 no binding seen, B3 no binding seen, B4 no binding seen, B5 no binding seen, B6 no binding seen, B7 no binding seen, B8 no binding seen, B9 no binding seen, B10 no binding seen, B11 no binding seen, B12 no binding seen, B13 no binding seen, B14 no binding seen, B15 no binding seen, B16 > 305 nM, B17 no binding seen, B18 no binding seen, B19 no binding seen, B20 no binding seen, B21 no binding seen, B22 no binding seen, B23 no binding seen, B24 no binding seen, B25 no binding seen, B26 no binding seen, B27 no binding seen, B28 no binding seen, B29 no binding seen, B30 no binding seen, B31 no binding seen, B32 no binding seen, B33 no binding seen, B34 no binding seen, B35 no binding seen, B36 no binding seen, B37 no binding seen
